Experimental data: PubChem BioAssay AID1259254 (NCATS, 2017)
The deposit covers about 59,000 reagents; shown is a random part of them. Of all reagents, about 1,550 (2.6%) got an active call. 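G2 share is only a proxy for re-replication; each gene was hit by three separate siRNAs, and active genes were retested.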 The raw values are shown without normalisation. Reagents against one gene are numbered here. Not stated in the record: the amount of reagent.

Aim: 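Finding genes that stop cells copying their DNA twice in one cycle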 (primary screen)
System: human HCT116 colorectal cancer cells
Knock-down reagent: single siRNA against human genes
Timing: 3 days
Measured: 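Nuclei stained with Hoechst and imaged; cell-cycle phase assigned by DNA content; G2 share scaled per plate, non-targeting siRNA 0%, GMNN siRNA 100%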
Direction: G2 robust z-score and G2 cells, % of GMNN control: higher = more G2 cells, more excess DNA replication; raw share of cells in G2: higher = larger share of cells with G2 DNA content
Hit rule: 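Active siRNAs have a G2 robust z of 5 or more median absolute deviations over the median, which in these data means about 38% or higher of GMNN control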

target | reagent | G2 robust z-score | G2 cells, % of GMNN control | raw share of cells in G2 (%) | outcome
TSGA10 | 1 | -0.931 | -3.58 | 1.4 | inactive
TSGA10 | 2 | -0.304 | 0.832 | 4.79 | inactive
TSGA10 | 3 | -0.315 | 0.752 | 4.63 | inactive
SAR1AP3 | 1 | -0.263 | 1.11 | 4.37 | inactive
SAR1AP3 | 2 | -0.208 | 1.5 | 3.92 | inactive
SAR1AP3 | 3 | 0.048 | 3.31 | 5.52 | inactive
OR7G2 | 1 | -1.09 | -4.71 | 2.1 | inactive
OR7G2 | 2 | 1.03 | 10.2 | 7.58 | inactive
OR7G2 | 3 | -0.178 | 1.71 | 5.5 | inactive
PHF8 | 1 | -0.823 | -2.82 | 3.88 | inactive
PHF8 | 2 | -0.412 | 0.0692 | 4.16 | inactive
PHF8 | 3 | 0.773 | 8.4 | 6.32 | inactive
SLC22A25 | 1 | -0.659 | -1.67 | 3.2 | inactive
SLC22A25 | 2 | -0.969 | -3.85 | 1.73 | inactive
SLC22A25 | 3 | 0.421 | 5.93 | 7.18 | inactive
ZNF670 | 1 | -0.299 | 0.861 | 3.39 | inactive
ZNF670 | 2 | -0.586 | -1.16 | 2.76 | inactive
ZNF670 | 3 | -0.297 | 0.878 | 3.83 | inactive
DMRT2 | 1 | 1.2 | 11.4 | 10.7 | inactive
DMRT2 | 2 | 0.245 | 4.69 | 5.36 | inactive
DMRT2 | 3 | -1.25 | -5.83 | 4.18 | inactive
FRMPD4 | 1 | 4.03 | 31.3 | 19.5 | inactive
FRMPD4 | 2 | -0.22 | 1.42 | 4.54 | inactive
FRMPD4 | 3 | -0.0861 | 2.36 | 4.26 | inactive
MCM9 | 1 | 4.02 | 31.3 | 16.1 | inactive
MCM9 | 2 | 0.0347 | 3.21 | 6.05 | inactive
MCM9 | 3 | -1.25 | -5.82 | 3.18 | inactive
ZNF628 | 1 | 0.258 | 4.78 | 4.74 | inactive
ZNF628 | 2 | 0.336 | 5.33 | 5.02 | inactive
ZNF628 | 3 | 1.06 | 10.4 | 7.17 | inactive
RAB11FIP3 | 1 | -0.33 | 0.647 | 5.01 | inactive
RAB11FIP3 | 2 | 1.41 | 12.9 | 10.1 | inactive
RAB11FIP3 | 3 | -0.133 | 2.03 | 3.89 | inactive

The list goes on; the last 3 above are carried over.
target | reagent | G2 robust z-score | G2 cells, % of GMNN control | raw share of cells in G2 (%) | outcome
RAB11FIP3 | 1 | -0.33 | 0.647 | 5.01 | inactive
RAB11FIP3 | 2 | 1.41 | 12.9 | 10.1 | inactive
RAB11FIP3 | 3 | -0.133 | 2.03 | 3.89 | inactive
C10orf143 | 1 | 1.05 | 10.4 | 7.32 | inactive
C10orf143 | 2 | 0.0753 | 3.5 | 4.93 | inactive
C10orf143 | 3 | -0.662 | -1.69 | 3.91 | inactive
RPLP1P3 | 1 | -0.811 | -2.74 | 3.14 | inactive
RPLP1P3 | 2 | 1.26 | 11.9 | 6.86 | inactive
RPLP1P3 | 3 | 0.314 | 5.18 | 4.46 | inactive
LINC00239 | 1 | 3.79 | 29.7 | 13.8 | inactive
LINC00239 | 2 | 0.911 | 9.38 | 5.81 | inactive
LINC00239 | 3 | -0.816 | -2.77 | 2.1 | inactive
DCDC1 | 1 | 0.705 | 7.93 | 5.27 | inactive
DCDC1 | 2 | -0.93 | -3.57 | 2.32 | inactive
DCDC1 | 3 | -0.264 | 1.11 | 3.33 | inactive
DCDC1 | 4 | 0.069 | 3.45 | 5.17 | inactive
DCDC1 | 5 | 0.254 | 4.75 | 5.34 | inactive
DCDC1 | 6 | -0.611 | -1.33 | 3.65 | inactive
ST13 | 1 | 1.47 | 13.3 | 8.75 | inactive
ST13 | 2 | 1.13 | 10.9 | 9.95 | inactive
ST13 | 3 | -0.7 | -1.96 | 2.4 | inactive
SPACA1 | 1 | -1.35 | -6.51 | 1.94 | inactive
SPACA1 | 2 | 1.51 | 13.6 | 7.49 | inactive
SPACA1 | 3 | -0.455 | -0.234 | 2.33 | inactive
ABCC10 | 1 | 1.41 | 12.9 | 11.7 | inactive
ABCC10 | 2 | 0.599 | 7.18 | 8.05 | inactive
ABCC10 | 3 | 0.00226 | 2.98 | 5.61 | inactive
SGIP1 | 1 | 1.5 | 13.5 | 6.5 | inactive
SGIP1 | 2 | -0.544 | -0.859 | 3.82 | inactive
SGIP1 | 3 | 0.73 | 8.1 | 5.86 | inactive
LINC03122 | 1 | -0.455 | -0.237 | 3.55 | inactive
LINC03122 | 2 | -0.617 | -1.38 | 2.51 | inactive
LINC03122 | 3 | -1.02 | -4.19 | 1.99 | inactive
AANAT | 1 | 1.31 | 12.2 | 8.88 | inactive
AANAT | 2 | -0.931 | -3.58 | 3.8 | inactive
AANAT | 3 | -0.694 | -1.92 | 3.28 | inactive
BBS9 | 1 | 0.125 | 3.85 | 5.32 | inactive
BBS9 | 2 | -0.725 | -2.14 | 3.74 | inactive
BBS9 | 3 | 0.76 | 8.31 | 5.87 | inactive
